Data published in the supplement of paper PMC4604168 (melanoma cell lines).
This is one part of the list. Many values rest on one well or one pass, so single values are uncertain.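 Cells were imaged in 1,536-well plates, and nuclei stained with an antibody against cleaved PARP were counted against all DNA-stained nuclei to give the apoptosis fraction. Screening doses were chosen to leave most cells alive, and resting and induced cleaved-PARP levels differ strongly between cell lines.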

system: WM3526; assay: cleaved PARP positive nuclei fraction relative to DMSO control; melanoma cells; higher = more apoptosis; conditions: library dose: low library concentration; 72 h

SMILES | cleaved PARP positive nuclei fraction
CO[C@H]1C[C@@H]2CC[C@@H](C)[C@@](O)(O2)C(=O)C(=O)N2CCCC[C@H]2C(=O)O[C@H]([C@H](C)C[C@@H]2CC[C@@H](OCCO)[C@H](OC)C2)CC(=O)[C@H](C)/C=C(\C)[C@@H](O)[C@@H](OC)C(=O)[C@H](C)C[C@H](C)/C=C/C=C/C=C/1C [everolimus] + Cc1cc([N+](=O)[O-])ccc1NS(=O)(=O)c1cc(Cl)ccc1Cl [FH535] (first compound 0.02 µM, partner dose 1 µM) | 111%
CO[C@H]1C[C@@H]2CC[C@@H](C)[C@@](O)(O2)C(=O)C(=O)N2CCCC[C@H]2C(=O)O[C@H]([C@H](C)C[C@@H]2CC[C@@H](OCCO)[C@H](OC)C2)CC(=O)[C@H](C)/C=C(\C)[C@@H](O)[C@@H](OC)C(=O)[C@H](C)C[C@H](C)/C=C/C=C/C=C/1C [everolimus] + O=C(O)c1ccc(-c2c[nH]c3ncc(-c4ccccc4)cc23)cc1C1CCCC1 [GSK650394] (first compound 0.02 µM, partner dose 0.16 µM) | 32.7%
CO[C@H]1C[C@@H]2CC[C@@H](C)[C@@](O)(O2)C(=O)C(=O)N2CCCC[C@H]2C(=O)O[C@H]([C@H](C)C[C@@H]2CC[C@@H](OCCO)[C@H](OC)C2)CC(=O)[C@H](C)/C=C(\C)[C@@H](O)[C@@H](OC)C(=O)[C@H](C)C[C@H](C)/C=C/C=C/C=C/1C [everolimus] + COc1ccc(COc2ccc(Cc3cnc(N)nc3N)cc2OC)cc1 [GW2580] (first compound 0.02 µM, partner dose 1 µM) | 119%
CO[C@H]1C[C@@H]2CC[C@@H](C)[C@@](O)(O2)C(=O)C(=O)N2CCCC[C@H]2C(=O)O[C@H]([C@H](C)C[C@@H]2CC[C@@H](OCCO)[C@H](OC)C2)CC(=O)[C@H](C)/C=C(\C)[C@@H](O)[C@@H](OC)C(=O)[C@H](C)C[C@H](C)/C=C/C=C/C=C/1C [everolimus] + O=S(=O)(c1ccccc1)N(CC(F)(F)F)c1ccc(C(O)(C(F)(F)F)C(F)(F)F)cc1 [T0901317] (first compound 0.02 µM, partner dose 1.4 µM) | 114%
Cn1c(=O)n(-c2ccc(C(C)(C)C#N)cc2)c2c3cc(-c4cnc5ccccc5c4)ccc3ncc21 + CN1CCN(c2ccc3nc(-c4c(N)c5c(F)cccc5[nH]c4=O)[nH]c3c2)CC1 [Dovitinib] (first compound 0.004 µM, partner dose 0.1 µM) | 111%
CO[C@H]1C[C@@H]2CC[C@@H](C)[C@@](O)(O2)C(=O)C(=O)N2CCCC[C@H]2C(=O)O[C@H]([C@H](C)C[C@@H]2CC[C@@H](OCCO)[C@H](OC)C2)CC(=O)[C@H](C)/C=C(\C)[C@@H](O)[C@@H](OC)C(=O)[C@H](C)C[C@H](C)/C=C/C=C/C=C/1C [everolimus] + COc1cc(Nc2ncc(F)c(Nc3ccc4c(n3)NC(=O)C(C)(C)O4)n2)cc(OC)c1OC [Tamatinib] (first compound 0.02 µM, partner dose 0.4 µM) | 78.3%
CO[C@H]1C[C@@H]2CC[C@@H](C)[C@@](O)(O2)C(=O)C(=O)N2CCCC[C@H]2C(=O)O[C@H]([C@H](C)C[C@@H]2CC[C@@H](OCCO)[C@H](OC)C2)CC(=O)[C@H](C)/C=C(\C)[C@@H](O)[C@@H](OC)C(=O)[C@H](C)C[C@H](C)/C=C/C=C/C=C/1C [everolimus] + CO[C@@H]1[C@H](N(C)C(=O)c2ccccc2)C[C@H]2O[C@]1(C)n1c3ccccc3c3c4c(c5c6ccccc6n2c5c31)C(=O)NC4 [Midostaurin] (first compound 0.02 µM, partner dose 0.08 µM) | 67.4%
CO[C@H]1C[C@@H]2CC[C@@H](C)[C@@](O)(O2)C(=O)C(=O)N2CCCC[C@H]2C(=O)O[C@H]([C@H](C)C[C@@H]2CC[C@@H](OCCO)[C@H](OC)C2)CC(=O)[C@H](C)/C=C(\C)[C@@H](O)[C@@H](OC)C(=O)[C@H](C)C[C@H](C)/C=C/C=C/C=C/1C [everolimus] + CCN(CC)CCCCNc1ncc2cc(-c3cc(OC)cc(OC)c3)c(NC(=O)NC(C)(C)C)nc2n1 [PD173074] (first compound 0.02 µM, partner dose 0.1 µM) | 102%
CO[C@H]1C[C@@H]2CC[C@@H](C)[C@@](O)(O2)C(=O)C(=O)N2CCCC[C@H]2C(=O)O[C@H]([C@H](C)C[C@@H]2CC[C@@H](OCCO)[C@H](OC)C2)CC(=O)[C@H](C)/C=C(\C)[C@@H](O)[C@@H](OC)C(=O)[C@H](C)C[C@H](C)/C=C/C=C/C=C/1C [everolimus] + Cc1cc(N2CCOCC2)cc2[nH]c(-c3c(NC[C@@H](O)c4cccc(Cl)c4)cc[nH]c3=O)nc12 [BMS536924] (first compound 0.02 µM, partner dose 0.2 µM) | 91.6%
CO[C@H]1C[C@@H]2CC[C@@H](C)[C@@](O)(O2)C(=O)C(=O)N2CCCC[C@H]2C(=O)O[C@H]([C@H](C)C[C@@H]2CC[C@@H](OCCO)[C@H](OC)C2)CC(=O)[C@H](C)/C=C(\C)[C@@H](O)[C@@H](OC)C(=O)[C@H](C)C[C@H](C)/C=C/C=C/C=C/1C [everolimus] + Cn1cc(/C=C2\C(=O)Nc3cccnc32)c2ccccc21 [GW441756] (first compound 0.02 µM, partner dose 0.4 µM) | 70.8%
CO[C@H]1C[C@@H]2CC[C@@H](C)[C@@](O)(O2)C(=O)C(=O)N2CCCC[C@H]2C(=O)O[C@H]([C@H](C)C[C@@H]2CC[C@@H](OCCO)[C@H](OC)C2)CC(=O)[C@H](C)/C=C(\C)[C@@H](O)[C@@H](OC)C(=O)[C@H](C)C[C@H](C)/C=C/C=C/C=C/1C [everolimus] + Cn1c(Nc2ccc(C(F)(F)F)cc2)nc2cc(Oc3ccnc(-c4ncc(C(F)(F)F)[nH]4)c3)ccc21 [CHIR265] (first compound 0.02 µM, partner dose 0.08 µM) | 89%
CO[C@H]1C[C@@H]2CC[C@@H](C)[C@@](O)(O2)C(=O)C(=O)N2CCCC[C@H]2C(=O)O[C@H]([C@H](C)C[C@@H]2CC[C@@H](OCCO)[C@H](OC)C2)CC(=O)[C@H](C)/C=C(\C)[C@@H](O)[C@@H](OC)C(=O)[C@H](C)C[C@H](C)/C=C/C=C/C=C/1C [everolimus] + COc1cc2ncnc(Nc3ccc(Oc4ccccc4)cc3)c2cc1OC [SrcI1] (first compound 0.02 µM, partner dose 2 µM) | 93.1%
CO[C@H]1C[C@@H]2CC[C@@H](C)[C@@](O)(O2)C(=O)C(=O)N2CCCC[C@H]2C(=O)O[C@H]([C@H](C)C[C@@H]2CC[C@@H](OCCO)[C@H](OC)C2)CC(=O)[C@H](C)/C=C(\C)[C@@H](O)[C@@H](OC)C(=O)[C@H](C)C[C@H](C)/C=C/C=C/C=C/1C [everolimus] + CN(NC(=O)CC(=O)NN(C)C(=S)c1ccccc1)C(=S)c1ccccc1 [STA4783] (first compound 0.02 µM, partner dose 0.006 µM) | 1990%
CO[C@H]1C[C@@H]2CC[C@@H](C)[C@@](O)(O2)C(=O)C(=O)N2CCCC[C@H]2C(=O)O[C@H]([C@H](C)C[C@@H]2CC[C@@H](OCCO)[C@H](OC)C2)CC(=O)[C@H](C)/C=C(\C)[C@@H](O)[C@@H](OC)C(=O)[C@H](C)C[C@H](C)/C=C/C=C/C=C/1C [everolimus] + CCCCCCCCCCCC1=C(O)C(=O)C=C(O)C1=O [Embelin] (first compound 0.02 µM, partner dose 1.2 µM) | 112%
CO[C@H]1C[C@@H]2CC[C@@H](C)[C@@](O)(O2)C(=O)C(=O)N2CCCC[C@H]2C(=O)O[C@H]([C@H](C)C[C@@H]2CC[C@@H](OCCO)[C@H](OC)C2)CC(=O)[C@H](C)/C=C(\C)[C@@H](O)[C@@H](OC)C(=O)[C@H](C)C[C@H](C)/C=C/C=C/C=C/1C [everolimus] + COC(=O)c1sccc1S(=O)(=O)Nc1ccc(Nc2ccccc2)cc1OC [GSK0660] (first compound 0.02 µM, partner dose 1 µM) | 273%
CO[C@H]1C[C@@H]2CC[C@@H](C)[C@@](O)(O2)C(=O)C(=O)N2CCCC[C@H]2C(=O)O[C@H]([C@H](C)C[C@@H]2CC[C@@H](OCCO)[C@H](OC)C2)CC(=O)[C@H](C)/C=C(\C)[C@@H](O)[C@@H](OC)C(=O)[C@H](C)C[C@H](C)/C=C/C=C/C=C/1C [everolimus] + C[C@@H]1CCN(C(=O)CC#N)C[C@@H]1N(C)c1ncnc2[nH]ccc12 [CP690550] (first compound 0.02 µM, partner dose 1 µM) | 146%
CO[C@H]1C[C@@H]2CC[C@@H](C)[C@@](O)(O2)C(=O)C(=O)N2CCCC[C@H]2C(=O)O[C@H]([C@H](C)C[C@@H]2CC[C@@H](OCCO)[C@H](OC)C2)CC(=O)[C@H](C)/C=C(\C)[C@@H](O)[C@@H](OC)C(=O)[C@H](C)C[C@H](C)/C=C/C=C/C=C/1C [everolimus] + Oc1cc(-c2nc(-c3ccccc3)[nH]c2-c2ccncc2)ccc1Cl [L779450] (first compound 0.02 µM, partner dose 0.2 µM) | 116%
CO[C@H]1C[C@@H]2CC[C@@H](C)[C@@](O)(O2)C(=O)C(=O)N2CCCC[C@H]2C(=O)O[C@H]([C@H](C)C[C@@H]2CC[C@@H](OCCO)[C@H](OC)C2)CC(=O)[C@H](C)/C=C(\C)[C@@H](O)[C@@H](OC)C(=O)[C@H](C)C[C@H](C)/C=C/C=C/C=C/1C [everolimus] + Cn1cncc1[C@@](N)(c1ccc(Cl)cc1)c1ccc2c(c1)c(-c1cccc(Cl)c1)cc(=O)n2C [tipifarnib] (first compound 0.02 µM, partner dose 0.01 µM) | 151%

Taken from above:
cleaved PARP positive nuclei fraction, Cn1c(=O)n(-c2ccc(C(C)(C)C#N)cc2)c2c3cc(-c4cnc5ccccc5c4)ccc3ncc21 + CN1CCN(c2ccc3nc(-c4c(N)c5c(F)cccc5[nH]c4=O)[nH]c3c2)CC1 [Dovitinib] (first compound 0.004 µM, partner dose 0.1 µM) reads 111%
cleaved PARP positive nuclei fraction, CO[C@H]1C[C@@H]2CC[C@@H](C)[C@@](O)(O2)C(=O)C(=O)N2CCCC[C@H]2C(=O)O[C@H]([C@H](C)C[C@@H]2CC[C@@H](OCCO)[C@H](OC)C2)CC(=O)[C@H](C)/C=C(\C)[C@@H](O)[C@@H](OC)C(=O)[C@H](C)C[C@H](C)/C=C/C=C/C=C/1C [everolimus] + COc1ccc(COc2ccc(Cc3cnc(N)nc3N)cc2OC)cc1 [GW2580] (first compound 0.02 µM, partner dose 1 µM) reads 119%
